The values that follow come from PMC7040100.

The chains behind the UniProt entries cited, without tags or fusion partners.
UniProt P22366: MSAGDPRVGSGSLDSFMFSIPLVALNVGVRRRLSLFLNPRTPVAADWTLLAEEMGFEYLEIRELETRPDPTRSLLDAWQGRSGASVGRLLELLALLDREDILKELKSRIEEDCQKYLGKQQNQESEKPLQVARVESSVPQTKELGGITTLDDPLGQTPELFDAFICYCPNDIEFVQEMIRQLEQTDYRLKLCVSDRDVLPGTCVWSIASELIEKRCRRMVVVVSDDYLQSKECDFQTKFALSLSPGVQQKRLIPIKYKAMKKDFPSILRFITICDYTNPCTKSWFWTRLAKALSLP
UniProt P26450: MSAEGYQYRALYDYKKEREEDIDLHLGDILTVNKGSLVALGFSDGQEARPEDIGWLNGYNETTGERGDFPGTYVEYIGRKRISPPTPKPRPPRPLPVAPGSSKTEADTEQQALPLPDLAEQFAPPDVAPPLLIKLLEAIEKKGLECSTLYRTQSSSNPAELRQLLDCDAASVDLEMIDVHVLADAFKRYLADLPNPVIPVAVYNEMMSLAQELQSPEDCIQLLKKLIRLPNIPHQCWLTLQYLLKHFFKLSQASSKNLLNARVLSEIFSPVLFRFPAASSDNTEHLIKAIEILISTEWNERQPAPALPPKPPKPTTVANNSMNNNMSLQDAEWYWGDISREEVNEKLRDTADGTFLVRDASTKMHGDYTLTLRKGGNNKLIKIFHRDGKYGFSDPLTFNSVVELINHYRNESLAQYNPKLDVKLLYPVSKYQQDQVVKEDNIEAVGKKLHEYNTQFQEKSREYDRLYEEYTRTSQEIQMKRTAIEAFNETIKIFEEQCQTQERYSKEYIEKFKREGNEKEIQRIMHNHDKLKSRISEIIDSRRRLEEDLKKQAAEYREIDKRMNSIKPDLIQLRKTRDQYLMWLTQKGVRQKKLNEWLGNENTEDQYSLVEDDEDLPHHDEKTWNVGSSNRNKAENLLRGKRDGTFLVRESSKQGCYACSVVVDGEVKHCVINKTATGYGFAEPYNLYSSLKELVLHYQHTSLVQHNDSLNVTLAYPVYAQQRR

No constants are given. Whether binding was seen depends on the method and setting. In cells and extracts the contact can be indirect. Some entries that bind do so weakly or less than the wild type.

For assay [1], the target named is T1, B cell adapter for phosphoinositide 3-kinase (BCAP) (mouse (endogenous in DC2.4 cells and BMDCs)) (UniProt Q9EQ32).
T1 sequence: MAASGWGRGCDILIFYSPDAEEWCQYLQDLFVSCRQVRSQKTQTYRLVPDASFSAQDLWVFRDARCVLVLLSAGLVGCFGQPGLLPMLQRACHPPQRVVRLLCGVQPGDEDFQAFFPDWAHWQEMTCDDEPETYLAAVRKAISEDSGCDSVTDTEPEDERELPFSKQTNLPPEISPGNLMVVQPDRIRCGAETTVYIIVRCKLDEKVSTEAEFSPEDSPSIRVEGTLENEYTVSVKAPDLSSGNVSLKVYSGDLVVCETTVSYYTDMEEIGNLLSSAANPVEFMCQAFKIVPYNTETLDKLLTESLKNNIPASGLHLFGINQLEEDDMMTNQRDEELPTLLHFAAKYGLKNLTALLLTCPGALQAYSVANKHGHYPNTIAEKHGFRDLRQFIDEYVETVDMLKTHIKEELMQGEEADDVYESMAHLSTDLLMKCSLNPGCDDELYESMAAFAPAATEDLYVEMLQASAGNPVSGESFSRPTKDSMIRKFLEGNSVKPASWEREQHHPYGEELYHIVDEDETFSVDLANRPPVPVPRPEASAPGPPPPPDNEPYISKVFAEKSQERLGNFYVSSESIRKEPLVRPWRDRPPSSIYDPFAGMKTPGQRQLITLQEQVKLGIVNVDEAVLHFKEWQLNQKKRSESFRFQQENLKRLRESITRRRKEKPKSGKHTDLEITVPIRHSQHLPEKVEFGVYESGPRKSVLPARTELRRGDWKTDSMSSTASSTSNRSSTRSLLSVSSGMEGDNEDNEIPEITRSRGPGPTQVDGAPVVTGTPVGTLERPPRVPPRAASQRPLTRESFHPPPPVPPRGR
The experiment in a line: condition: only early after stimulation with 100 ng/ml LPS; co-IP; BMDCs early after stimulation with 100 ng/ml LPS; lysate immunoprecipitated with anti-BCAP; immunoblot with anti-MyD88.

Assay [2] concerns the target T1, B cell adapter for phosphoinositide 3-kinase (BCAP) (mouse (endogenous in DC2.4 cells and BMDCs)). The assay is described as follows: co-IP; BMDCs, 100 ng/ml LPS for the indicated times; lysate immunoprecipitated with anti-BCAP; immunoblot with anti-MyD88 and anti-p85α.
In assay [3] the target is MyD88 (mouse (endogenous in DC2.4 cells and BMDCs)) (UniProt P22366). The experiment in a line: condition: only early after stimulation with 1 μg/ml LPS; co-IP; DC2.4 cells early after stimulation with 1 μg/ml LPS; weak RIPA lysate; immunoprecipitated with anti-MyD88; immunoblot with anti-BCAP.
Assay [4] concerns the target p85α subunit of PI3K (mouse (endogenous in DC2.4 cells and BMDCs)) (UniProt P26450). The experiment in a line: co-IP; DC2.4 cells, 1 μg/ml LPS for the indicated times (also Nck1-knockdown or control cells); weak RIPA lysate (0.5% Triton X-100, 120 mM NaCl, 50 mM Tris-HCl pH 7.5); immunoprecipitated with anti-MyD88, anti-p85α or anti-Nck1 overnight at 4°C, protein A/G beads; immunoblot with anti-BCAP.

In assay [5] the target is MyD88 (mouse (endogenous in DC2.4 cells and BMDCs)) (UniProt P22366). The description is as above.

Consider MyD88 (from UniProt P22366 1-296), for which the binding result in assay [1] is “no binding”; in assay [2] it was “binds”.
For “p85α subunit of PI3K (from UniProt P26450 1-724)”, the binding entry in assay [2] is listed as “binds”.

B1: B cell adapter for phosphoinositide 3-kinase (BCAP) (protein, UniProt Q9EQ32 1-811)
chain: T1 sequence
Take B1: the binding result in assay [3] was “no binding”; in assay [4] it was “binds”; in assay [5], “binds”.
